Laboratory results: patent US20070172470A1, “Phosphatase regulation of nucleic acid transcription” (The Regents of the University of California, priority 2003, published 2007)
No constants are given. Whether binding was seen depends on the method and setting. Some entries that bind do so weakly or less than the wild type. Tags and fused reporters may be left off the sequences shown.

Amino acid sequences for entries named in this document (tags omitted).
UniProt P35269: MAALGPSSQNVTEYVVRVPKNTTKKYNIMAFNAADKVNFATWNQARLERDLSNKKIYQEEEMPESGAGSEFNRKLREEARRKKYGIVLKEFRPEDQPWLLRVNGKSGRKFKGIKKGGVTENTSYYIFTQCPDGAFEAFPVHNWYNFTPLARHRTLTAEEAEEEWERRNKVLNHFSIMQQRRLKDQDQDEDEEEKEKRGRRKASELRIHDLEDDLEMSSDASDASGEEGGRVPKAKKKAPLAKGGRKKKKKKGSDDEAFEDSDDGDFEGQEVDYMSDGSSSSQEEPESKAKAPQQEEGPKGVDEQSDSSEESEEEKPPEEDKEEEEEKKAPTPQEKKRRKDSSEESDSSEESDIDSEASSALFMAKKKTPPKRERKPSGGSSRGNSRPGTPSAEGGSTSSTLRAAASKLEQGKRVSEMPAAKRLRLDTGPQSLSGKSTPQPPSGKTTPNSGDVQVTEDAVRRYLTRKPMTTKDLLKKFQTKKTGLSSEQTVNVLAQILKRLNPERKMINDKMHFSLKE

Molecular target: T1, GST-SCP1 (human) (UniProt Q9GZU7)
T1 sequence: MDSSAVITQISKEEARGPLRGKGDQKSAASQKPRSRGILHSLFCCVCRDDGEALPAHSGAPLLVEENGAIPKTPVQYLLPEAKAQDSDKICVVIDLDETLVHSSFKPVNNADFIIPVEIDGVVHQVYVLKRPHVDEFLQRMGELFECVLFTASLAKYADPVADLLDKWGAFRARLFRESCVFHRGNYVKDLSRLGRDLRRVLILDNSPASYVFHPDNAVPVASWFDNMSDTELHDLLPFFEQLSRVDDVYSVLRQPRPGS
Test: direct binding to GST fusion protein; method not described

RAP74 (from UniProt P35269 1-517)
binding: binds
